Experimental findings from the supplement of paper PMC11006884 are described below.

The chains behind the UniProt entries cited, without tags or fusion partners. Where a name states a change or a piece, a line headed by the entry shows the natural chain unless it says otherwise.
UniProt O95347, whole entry, looked up: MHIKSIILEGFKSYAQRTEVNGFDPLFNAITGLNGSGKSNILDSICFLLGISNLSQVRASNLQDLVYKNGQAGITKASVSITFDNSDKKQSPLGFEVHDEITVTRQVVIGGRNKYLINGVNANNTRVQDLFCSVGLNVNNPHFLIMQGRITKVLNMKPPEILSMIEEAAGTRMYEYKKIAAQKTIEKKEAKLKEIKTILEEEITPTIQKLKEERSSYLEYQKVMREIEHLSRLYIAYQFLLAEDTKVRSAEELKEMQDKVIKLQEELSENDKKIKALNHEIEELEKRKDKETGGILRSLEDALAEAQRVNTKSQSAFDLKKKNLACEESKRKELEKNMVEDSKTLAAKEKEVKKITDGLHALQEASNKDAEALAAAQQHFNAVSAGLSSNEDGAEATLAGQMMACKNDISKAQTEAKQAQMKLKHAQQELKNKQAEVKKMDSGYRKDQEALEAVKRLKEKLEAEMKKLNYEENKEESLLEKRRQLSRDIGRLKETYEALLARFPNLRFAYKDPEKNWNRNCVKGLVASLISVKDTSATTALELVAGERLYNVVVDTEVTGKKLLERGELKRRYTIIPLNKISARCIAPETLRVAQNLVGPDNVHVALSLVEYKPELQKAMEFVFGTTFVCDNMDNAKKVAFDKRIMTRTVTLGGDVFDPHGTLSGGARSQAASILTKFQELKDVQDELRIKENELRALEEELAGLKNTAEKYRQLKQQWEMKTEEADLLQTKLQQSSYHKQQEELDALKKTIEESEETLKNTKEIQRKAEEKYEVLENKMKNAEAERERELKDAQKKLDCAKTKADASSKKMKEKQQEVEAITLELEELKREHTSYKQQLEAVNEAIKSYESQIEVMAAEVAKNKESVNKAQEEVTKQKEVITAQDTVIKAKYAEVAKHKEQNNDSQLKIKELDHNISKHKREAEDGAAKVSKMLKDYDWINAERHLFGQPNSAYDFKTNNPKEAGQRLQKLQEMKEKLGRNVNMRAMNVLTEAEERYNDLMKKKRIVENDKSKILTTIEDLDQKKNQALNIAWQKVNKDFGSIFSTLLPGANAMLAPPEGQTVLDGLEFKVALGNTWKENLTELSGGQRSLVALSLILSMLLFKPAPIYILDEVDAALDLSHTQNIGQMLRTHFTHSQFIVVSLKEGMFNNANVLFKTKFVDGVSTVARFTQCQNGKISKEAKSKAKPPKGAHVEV
UniProt P05455: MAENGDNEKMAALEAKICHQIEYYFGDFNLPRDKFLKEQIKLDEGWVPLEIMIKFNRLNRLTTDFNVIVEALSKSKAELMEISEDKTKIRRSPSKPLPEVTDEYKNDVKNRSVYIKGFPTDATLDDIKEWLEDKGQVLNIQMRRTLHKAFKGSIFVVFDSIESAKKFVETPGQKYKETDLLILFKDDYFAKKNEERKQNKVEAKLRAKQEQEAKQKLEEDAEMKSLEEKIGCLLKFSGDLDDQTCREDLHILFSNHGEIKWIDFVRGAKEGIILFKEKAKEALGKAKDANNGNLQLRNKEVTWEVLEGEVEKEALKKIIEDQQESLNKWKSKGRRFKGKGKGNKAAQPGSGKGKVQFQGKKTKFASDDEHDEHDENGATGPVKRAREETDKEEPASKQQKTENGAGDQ
UniProt O94992, whole entry, looked up: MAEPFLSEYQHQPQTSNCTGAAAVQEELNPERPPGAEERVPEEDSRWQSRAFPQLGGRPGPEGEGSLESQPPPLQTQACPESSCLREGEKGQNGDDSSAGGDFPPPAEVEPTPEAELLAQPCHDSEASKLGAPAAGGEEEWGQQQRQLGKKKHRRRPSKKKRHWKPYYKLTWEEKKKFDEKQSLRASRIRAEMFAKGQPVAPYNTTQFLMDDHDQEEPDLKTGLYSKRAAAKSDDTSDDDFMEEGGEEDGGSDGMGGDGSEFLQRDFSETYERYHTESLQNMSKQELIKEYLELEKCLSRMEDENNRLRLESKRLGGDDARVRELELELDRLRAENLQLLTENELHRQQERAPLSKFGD
UniProt P07814: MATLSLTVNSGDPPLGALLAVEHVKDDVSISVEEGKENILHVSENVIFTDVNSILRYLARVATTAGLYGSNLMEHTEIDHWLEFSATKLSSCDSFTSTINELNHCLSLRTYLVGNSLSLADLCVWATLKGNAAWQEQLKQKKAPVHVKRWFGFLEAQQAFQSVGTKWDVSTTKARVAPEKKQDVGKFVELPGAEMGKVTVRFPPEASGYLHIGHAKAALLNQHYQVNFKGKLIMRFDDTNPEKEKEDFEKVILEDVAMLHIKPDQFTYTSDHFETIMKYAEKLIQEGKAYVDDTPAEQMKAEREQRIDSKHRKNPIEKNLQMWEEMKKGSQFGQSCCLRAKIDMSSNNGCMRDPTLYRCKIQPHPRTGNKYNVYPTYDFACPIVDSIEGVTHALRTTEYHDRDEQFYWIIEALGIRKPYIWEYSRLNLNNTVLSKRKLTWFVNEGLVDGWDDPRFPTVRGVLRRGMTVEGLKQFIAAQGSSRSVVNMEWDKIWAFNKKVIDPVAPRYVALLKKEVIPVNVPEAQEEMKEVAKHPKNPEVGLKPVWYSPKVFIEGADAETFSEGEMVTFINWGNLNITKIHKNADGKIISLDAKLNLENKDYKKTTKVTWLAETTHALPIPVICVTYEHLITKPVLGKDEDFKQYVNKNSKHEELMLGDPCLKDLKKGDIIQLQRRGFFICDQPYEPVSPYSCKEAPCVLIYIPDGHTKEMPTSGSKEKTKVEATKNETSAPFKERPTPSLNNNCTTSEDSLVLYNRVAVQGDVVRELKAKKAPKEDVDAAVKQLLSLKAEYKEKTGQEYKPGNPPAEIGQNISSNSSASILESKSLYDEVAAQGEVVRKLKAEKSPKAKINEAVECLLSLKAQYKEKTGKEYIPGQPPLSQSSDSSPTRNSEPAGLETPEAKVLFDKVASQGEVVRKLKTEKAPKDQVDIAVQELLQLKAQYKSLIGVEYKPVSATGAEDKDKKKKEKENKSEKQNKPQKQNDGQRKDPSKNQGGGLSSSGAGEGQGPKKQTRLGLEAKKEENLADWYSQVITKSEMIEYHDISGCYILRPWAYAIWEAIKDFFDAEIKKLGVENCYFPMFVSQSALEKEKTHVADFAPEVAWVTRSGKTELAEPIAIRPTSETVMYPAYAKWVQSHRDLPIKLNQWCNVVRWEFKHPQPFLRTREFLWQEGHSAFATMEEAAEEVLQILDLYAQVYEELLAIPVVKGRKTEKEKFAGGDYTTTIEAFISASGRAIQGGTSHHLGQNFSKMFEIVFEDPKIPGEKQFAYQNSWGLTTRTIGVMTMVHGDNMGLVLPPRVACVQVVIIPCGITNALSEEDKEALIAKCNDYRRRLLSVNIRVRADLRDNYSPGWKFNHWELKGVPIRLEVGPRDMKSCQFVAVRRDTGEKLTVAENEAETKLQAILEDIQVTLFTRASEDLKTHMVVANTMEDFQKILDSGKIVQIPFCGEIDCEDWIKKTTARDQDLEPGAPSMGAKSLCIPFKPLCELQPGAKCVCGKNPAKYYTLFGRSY
UniProt P07355, whole entry, looked up: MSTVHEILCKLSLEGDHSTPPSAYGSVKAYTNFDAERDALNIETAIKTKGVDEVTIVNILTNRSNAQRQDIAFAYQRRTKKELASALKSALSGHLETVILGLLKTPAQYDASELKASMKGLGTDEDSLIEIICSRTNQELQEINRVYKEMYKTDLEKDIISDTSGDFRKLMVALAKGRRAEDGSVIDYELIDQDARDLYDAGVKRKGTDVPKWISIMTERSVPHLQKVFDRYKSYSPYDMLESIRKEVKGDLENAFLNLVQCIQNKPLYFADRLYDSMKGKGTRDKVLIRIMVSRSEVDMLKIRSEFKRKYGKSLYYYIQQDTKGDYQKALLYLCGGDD
UniProt O95232: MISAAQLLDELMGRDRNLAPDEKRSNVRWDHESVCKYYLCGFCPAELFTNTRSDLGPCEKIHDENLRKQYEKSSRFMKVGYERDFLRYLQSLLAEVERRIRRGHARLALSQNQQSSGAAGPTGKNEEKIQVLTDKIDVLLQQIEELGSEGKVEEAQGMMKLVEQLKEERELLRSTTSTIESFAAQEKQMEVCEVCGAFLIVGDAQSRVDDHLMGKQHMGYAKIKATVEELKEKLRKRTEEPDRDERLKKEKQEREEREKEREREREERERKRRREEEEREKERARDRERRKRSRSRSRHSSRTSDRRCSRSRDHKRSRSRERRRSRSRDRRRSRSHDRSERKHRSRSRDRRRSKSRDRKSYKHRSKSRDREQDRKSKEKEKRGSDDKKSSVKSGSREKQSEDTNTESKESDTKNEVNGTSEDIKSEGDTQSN
UniProt P00491: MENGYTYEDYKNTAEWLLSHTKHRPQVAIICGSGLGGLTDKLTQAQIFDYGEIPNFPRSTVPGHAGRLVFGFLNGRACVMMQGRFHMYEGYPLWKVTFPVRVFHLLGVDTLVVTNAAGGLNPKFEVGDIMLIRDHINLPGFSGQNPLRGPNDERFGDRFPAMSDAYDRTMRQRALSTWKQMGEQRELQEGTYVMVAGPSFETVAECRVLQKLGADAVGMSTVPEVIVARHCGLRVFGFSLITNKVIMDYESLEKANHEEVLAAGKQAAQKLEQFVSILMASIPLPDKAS
UniProt P06733, whole entry, looked up: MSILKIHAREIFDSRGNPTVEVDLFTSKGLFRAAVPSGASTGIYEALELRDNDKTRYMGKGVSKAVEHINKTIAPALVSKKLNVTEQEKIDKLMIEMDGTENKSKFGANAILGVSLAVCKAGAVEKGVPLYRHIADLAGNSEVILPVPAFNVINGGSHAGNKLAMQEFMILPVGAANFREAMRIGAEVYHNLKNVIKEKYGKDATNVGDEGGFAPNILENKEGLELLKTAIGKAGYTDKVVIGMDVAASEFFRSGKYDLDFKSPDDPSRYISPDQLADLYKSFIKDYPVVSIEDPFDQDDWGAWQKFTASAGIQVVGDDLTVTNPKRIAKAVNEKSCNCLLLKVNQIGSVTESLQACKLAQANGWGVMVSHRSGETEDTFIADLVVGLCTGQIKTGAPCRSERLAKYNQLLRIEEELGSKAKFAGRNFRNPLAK
UniProt O95243: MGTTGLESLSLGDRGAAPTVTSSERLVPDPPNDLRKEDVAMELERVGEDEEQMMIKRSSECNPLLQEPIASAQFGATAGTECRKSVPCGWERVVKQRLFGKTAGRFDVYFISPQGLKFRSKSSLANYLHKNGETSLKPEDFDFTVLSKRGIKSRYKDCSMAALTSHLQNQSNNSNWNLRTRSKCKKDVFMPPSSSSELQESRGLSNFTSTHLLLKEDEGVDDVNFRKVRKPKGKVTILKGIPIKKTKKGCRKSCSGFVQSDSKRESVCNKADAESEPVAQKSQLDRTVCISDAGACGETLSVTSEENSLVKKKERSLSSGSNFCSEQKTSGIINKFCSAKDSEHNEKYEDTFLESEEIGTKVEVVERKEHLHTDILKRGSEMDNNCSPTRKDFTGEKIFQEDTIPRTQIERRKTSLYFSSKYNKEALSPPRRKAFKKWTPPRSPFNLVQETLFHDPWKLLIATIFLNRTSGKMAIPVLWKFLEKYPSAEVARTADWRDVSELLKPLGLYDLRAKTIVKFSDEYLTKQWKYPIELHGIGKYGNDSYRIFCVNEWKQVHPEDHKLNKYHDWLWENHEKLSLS
UniProt O95999: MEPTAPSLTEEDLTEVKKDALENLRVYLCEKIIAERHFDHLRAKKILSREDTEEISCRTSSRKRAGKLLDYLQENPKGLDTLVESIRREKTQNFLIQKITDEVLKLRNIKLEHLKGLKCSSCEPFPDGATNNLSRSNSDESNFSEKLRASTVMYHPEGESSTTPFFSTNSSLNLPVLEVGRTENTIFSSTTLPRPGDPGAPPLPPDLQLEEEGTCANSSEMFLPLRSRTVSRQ
UniProt O94901, whole entry: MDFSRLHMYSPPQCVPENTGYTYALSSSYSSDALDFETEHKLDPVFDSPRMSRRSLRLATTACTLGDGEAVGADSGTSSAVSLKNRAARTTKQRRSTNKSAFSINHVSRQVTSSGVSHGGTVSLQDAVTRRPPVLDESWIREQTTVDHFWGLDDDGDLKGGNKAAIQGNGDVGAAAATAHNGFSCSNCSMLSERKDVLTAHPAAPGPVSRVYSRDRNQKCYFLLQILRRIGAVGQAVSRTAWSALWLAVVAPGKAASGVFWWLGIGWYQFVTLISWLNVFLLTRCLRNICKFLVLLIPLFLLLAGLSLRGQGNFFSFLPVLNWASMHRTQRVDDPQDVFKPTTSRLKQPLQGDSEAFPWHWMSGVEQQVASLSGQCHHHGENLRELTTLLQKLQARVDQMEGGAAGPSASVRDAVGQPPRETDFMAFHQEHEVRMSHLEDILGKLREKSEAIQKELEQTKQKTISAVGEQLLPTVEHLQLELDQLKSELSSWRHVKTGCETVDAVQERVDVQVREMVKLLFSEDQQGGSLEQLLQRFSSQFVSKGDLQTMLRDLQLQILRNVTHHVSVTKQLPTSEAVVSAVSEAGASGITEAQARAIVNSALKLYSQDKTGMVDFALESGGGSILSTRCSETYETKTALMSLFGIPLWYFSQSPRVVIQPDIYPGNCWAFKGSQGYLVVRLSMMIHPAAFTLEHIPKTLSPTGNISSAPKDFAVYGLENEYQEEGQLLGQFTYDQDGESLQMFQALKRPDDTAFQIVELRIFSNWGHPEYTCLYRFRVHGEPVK

This list holds what a sample rich in targets with a hit left over. The data scatter; read single values as rough. This is a selection; strong and weak results do not stand in their true shares.

Compound in this assay: COC(=O)/C=C/c1ccccc1 [methyl cinnamate]
Description: log2 ratio of iodoacetamide-alkyne labeling of the cysteine site, DMSO over compound (competition); higher = stronger covalent engagement of the cysteine by the compound, active = 1 or more. The settings on record: 500 µM; treatment time 1 h; system: HEK293T cell lysate. In short, it runs like this:
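HEK293T lysate (2 mg/mL) was treated with DMSO or electrophile (500 µM, 1 h, ambient temperature), then iodoacetamide alkyne (1 h), clicked to sCIP-TMT reagents, pooled, trypsin-digested overnight at 37 °C, streptavidin-enriched and acid-eluted. Peptides were run on Orbitrap Eclipse LC-MS/MS with FAIMS and quantified in FragPipe. The log2 competition ratio per cysteine is mean control-channel over mean compound-channel reporter intensity. Duplicate channels and three replicates were used, and cysteines quantified in only one replicate were excluded.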
In the case of CAT C377 (UniProt P04040), the “log2 ratio of iodoacetamide-alkyne labeling” value (shortened to “log2 ratio”) is inactive: 0.0331.
On to SMC2 C326 (UniProt O95347), for which the “log2 ratio” value was inactive: 0.368.
On to LDHA C163 (UniProt P00338), for which the “log2 ratio” value is inactive: 0.194.
For SSB C18 (UniProt P05455), the “log2 ratio” value was inactive: -0.00964.
Next, HEXIM1 C18 (UniProt O94992): inactive: 0.102; EPRS C105 (UniProt P07814): inactive: -0.097; NPM1 C104 (UniProt P06748): inactive: 0.07.
As for UniProt O94763_C420, the “log2 ratio” value was inactive: 0.258.
For the target MTA2 C495 (UniProt O94776), the “log2 ratio” value was inactive: 0.122.
On to EPRS C1148 (UniProt P07814), for which the “log2 ratio” value is inactive: 0.0439.
Consider ANXA2 C9 (UniProt P07355), for which the “log2 ratio” value was inactive: 0.052.
For the target UniProt O94927_C12, the “log2 ratio” value was inactive: -0.217.
On to SSB C245 (UniProt P05455), for which the “log2 ratio” value is inactive: 0.0721.
As for UniProt O95232_C40, the “log2 ratio” value was inactive: 0.238.
In the case of UniProt O95551_C6, the “log2 ratio” value was inactive: 0.169.
For SVIL C671 (UniProt O95425), the “log2 ratio” value was inactive: 0.479.
Next, PYGL C581 (UniProt P06737): inactive: 0.12; LMNA C522 (UniProt P02545): inactive: 0.253; CAPNS1 C190 (UniProt P04632): inactive: -0.115.
Consider SASH1 C799 (UniProt O94885), for which the “log2 ratio” value was inactive: 0.429.
For MTA2 C209 (UniProt O94776), the “log2 ratio” value is inactive: -0.0402.
Regarding UniProt O96028_C1324, the “log2 ratio” value is inactive: 0.16.
Next, KIF20A C43 (UniProt O95235): inactive: 0.0335; UniProt P00491_C206: inactive: -0.0573.
For the target PRPF6 C901 (UniProt O94906), the “log2 ratio” value was inactive: 0.0742.
Turning to ENO1 C337 (UniProt P06733), the “log2 ratio” value was inactive: 0.449.
As for MBD4 C268 (UniProt O95243), the figure is inactive: 0.183.
For the target SASH1 C406 (UniProt O94885), the “log2 ratio” value was inactive: 0.284.
Take BCL10 C119 (UniProt O95999): the “log2 ratio” value was inactive: 0.317.
Next, UniProt O94901_C63: inactive: 0.252; UniProt O95232_C58: inactive: 0.274.
As for HERC2 C1201 (UniProt O95714), the figure is inactive: -0.0943; as for EPRS C359 (UniProt P07814), inactive: 0.0567.
On to CSTB C3 (UniProt P04080), for which the “log2 ratio” value is inactive: 0.273.
Turning to CA2 C205 (UniProt P00918), the “log2 ratio” value was inactive: 0.04.
With UniProt P00491_C31, the “log2 ratio” value was inactive: 0.211.
